# Data as given in US8329413B2, “Glycoproteomic probes for fluorescent imaging of fucosylated glycans in vivo” (Academia Sinica, priority 2007, dated 2012).
# Experiments:
# [1] = Cu(I)-catalyzed azide-alkyne cycloaddition of probes with fucose analogs, monitored by LC-MS; assay type: physicochemical
# [2] = Stoichiometric study of L-histidine in the cycloaddition of 1a and 2a; details: 2.0 mol equivalent histidine to copper
# Procedure: The overall volume in each vial was 250 microliters containing a solution of 1,8-naphthalimide 1a (0.5 mM), azidofucose 2a (1.0 mM), CUSO4 (1.0 mM), L-histidine (0-3.0 mM) and sodium ascorbate (5.0 mM) in DMSO/water (56% DMSO). The reactions were allowed to stand at room temperature for 24 hours. The catalytic activity was determined by the same method described above (FIG. 10).
# In this condition, 60% of 1a was converted to the product 10 after 1 h at room temperature and the reaction was completed in less than 6 h. To confirm the effects of L-His on the reaction, we measured the time-course of the reaction by fluorescence spectrometer. Conditions: 1,8-naphthalimide 1a (0.1 mM), azidofucose 2a (1.0 mM), CuSO4 (2.0 mM), L-histidine (0 or 4.0 mM) and sodium ascorbate (100 mM) in 50 mM HEPES buffer (containing 6% DMSO). After mixing all reagents, the fluorescence intensity was measured in 5 min intervals at 37° C. by a fluorescence spectrophotometer (FIG. 11). […] Fluorescence intensities were monitored at λ ex 357 nm and λem 462 nm.
smiles,measurement,setting,value
"C#Cc1ccc2c3c(cccc13)C(=O)N(CC)C2=O [Compound 1a, 4-Ethynyl-N-ethyl-1,8-naphthalimide]",conversion of 1a to 3a,"[1]; after 24 h, same conditions, no ligand, with 2a, LC-MS",10%
same,time to completion of cycloaddition,[1]; reaction between 1a and 2a in the presence of Tris(triazolyl)amine ligand,≤ 30 min
same,conversion of 1a to the product,[2]; after 1 h at room temperature,60%
same,time to completion of reaction,[2]; room temperature,less than 6 h
"CCN1C(=O)c2cccc3c(N=[N+]=[N-])ccc(c23)C1=O [Compound 1b, 4-Azido-N-ethyl-1,8-naphthalimide]",time to completion of cycloaddition,"[1]; CuSO4/sodium ascorbate, no ligand, with fucose analog 2b",< 30 min
